No constants are given. Whether binding was seen depends on the method and setting. Binding seen in cells or lysates may run through a third protein. Binding calls can cover weak binding; strength is not graded here.

Protein sequences, listed by entry. Tags and fused reporters are not part of them. Lines headed by an entry give the natural chain unless they say otherwise; changes in a name come on top.
UniProt Q9C9X5: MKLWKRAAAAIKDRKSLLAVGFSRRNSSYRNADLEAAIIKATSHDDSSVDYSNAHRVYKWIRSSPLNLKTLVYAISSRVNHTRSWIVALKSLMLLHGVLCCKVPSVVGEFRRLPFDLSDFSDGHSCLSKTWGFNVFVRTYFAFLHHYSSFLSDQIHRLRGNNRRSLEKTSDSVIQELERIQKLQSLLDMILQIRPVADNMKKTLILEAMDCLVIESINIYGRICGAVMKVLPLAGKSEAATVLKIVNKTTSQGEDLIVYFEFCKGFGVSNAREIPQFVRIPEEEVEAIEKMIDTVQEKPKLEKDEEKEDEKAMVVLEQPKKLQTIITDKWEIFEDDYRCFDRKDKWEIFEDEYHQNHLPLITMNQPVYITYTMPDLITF

This experiment addresses EAP1-RFP (Arabidopsis) (UniProt Q9C9X5). Description: co-IP; total protein of Arabidopsis pollen tubes in NEB buffer (20 mM HEPES pH 7.5, 40 mM KCl, 1 mM EDTA, 1% Triton X-100); GFP-trap or RFP-trap agarose beads, 3 h at 4 C; endogenous REN4 detected by anti-REN4 immunoblot. Background: Immunoblotting shows a protein as a band on a membrane.

B1: REN4 (ROP1 enhancer 4), endogenous (protein, UniProt O48716 1-465)
chain: MFTEADSIPRAKYANMMHSDPNLSSTMTQQTEEEYGIRNSSASAVGTGMYDRMSCEGSPMMMSPWNQATPFTQTQWSTVEENLPQNGLIGSLVREEGHIYSLAATKDLLYTGSDSKNIRVWKNLKEFSAFKCNSGLVKAIVISGEKIFTGHQDGKIRVWKVSPKNQSLHKRSGTLPTLKDIFKASLKPRNYVEVKKHRTALWIKHADAVSCLSLNDEQGLLYSASWDRTIKVWRIADSKCLESIPAHDDAVNSVVSTTEAIVFSGSADGTVKAWKRDQQGKYTKHTLMQTLTKQESAVTALAVSKNGAAVYFGSSDGLVNFWEREKQLNYGGILKGHKLAVLCLEVAGSLVFSGSADKTICVWKRDGNIHTCLSVLTGHTGPVKCLAVEADREASERRDKKWIVYSGSLDKSVKVWGVSESFIDMNQMSMMQQQQQQHVISHSEPFMSDGSFSSSAGGASSHRRH
For the molecule B1, the binding entry is listed as “binds”.
